Results from article PMC2894856.
These are yes or no findings as the source states them, for the method shown. Binding seen in cells or lysates may run through a third protein. Some binding calls cover weakened binding; strength is not graded here.

T1: endogenous mouse CD40 (mouse (endogenous in CH12.LX)), P27512
T1 chain: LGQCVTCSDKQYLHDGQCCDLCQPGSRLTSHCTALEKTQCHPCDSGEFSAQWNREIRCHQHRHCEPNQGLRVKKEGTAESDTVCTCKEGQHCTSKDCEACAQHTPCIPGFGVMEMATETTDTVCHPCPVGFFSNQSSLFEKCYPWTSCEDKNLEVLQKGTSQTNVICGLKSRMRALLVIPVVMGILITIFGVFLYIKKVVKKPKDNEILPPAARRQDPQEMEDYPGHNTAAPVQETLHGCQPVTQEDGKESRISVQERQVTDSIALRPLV


How the values were obtained:
[1] = molecular target: T1, endogenous mouse CD40 (mouse …); assay: co-IP; activated receptor capture (ARC) of endogenous mouse CD40 with anti-mouse CD40 beads (1C10 on goat anti-rat IgG) from CH12.LX wild type, TRAF2-deficient and TRAF3-deficient cells; Western blot; conditions: remark: other sources report otherwise
[2] = molecular target: endogenous mouse CD40 (mouse (endogenous in CH12.LX)) (UniProt P27512); assay: as above

binding [1] | binding [2] | Binder
binds |  | TRAF6, P70196 1-530 (protein) MSLLNCENSCGSSQSSSDCCAAMAASCSAAVKDDSVSGSASTGNLSSSFMEEIQGYDVEFDPPLESKYECPICLMALREAVQTPCGHRFCKACIIKSIRDAGHKCPVDNEILLENQLFPDNFAKREILSLTVKCPNKGCLQKMELRHLEDHQVHCEFALVNCPQCQRPFQKCQVNTHIIEDCPRRQVSCVNCAVSMAYEEKEIHDQSCPLANIICEYCGTILIREQMPNHYDLDCPTAPIPCTFSVFGCHEKMQRNHLARHLQENTQLHMRLLAQAVHNVNLALRPCDAASPSRGCRPEDPNYEETIKQLESRLVRQDHQIRELTAKMETQSMYVGELKRTIRTLEDKVAEMEAQQCNGIYIWKIGNFGMHLKSQEEERPVVIHSPGFYTGRPGYKLCMRLHLQLPTAQRCANYISLFVHTMQGEYDSHLPWPFQGTIRLTILDQSEALIRQNHEEVMDAKPELLAFQRPTIPRNPKGFGYVTFMHLEALRQGTFIKDDTLLVRCEVSTRFDMGGLRKEGFQPRSTDAGV
 | binds | TRAF3 (protein, UniProt Q60803 1-567) MESSKKMDAAGTLQPNPPLKLQPDRGAGSVLVPEQGGYKEKFVKTVEDKYKCEKCRLVLCNPKQTECGHRFCESCMAALLSSSSPKCTACQESIIKDKVFKDNCCKREILALQVYCRNEGRGCAEQLTLGHLLVHLKNECQFEELPCLRADCKEKVLRKDLRDHVEKACKYREATCSHCKSQVPMIKLQKHEDTDCPCVVVSCPHKCSVQTLLRSELSAHLSECVNAPSTCSFKRYGCVFQGTNQQIKAHEASSAVQHVNLLKEWSNSLEKKVSLLQNESVEKNKSIQSLHNQICSFEIEIERQKEMLRNNESKILHLQRVIDSQAEKLKELDKEIRPFRQNWEEADSMKSSVESLQNRVTELESVDKSAGQAARNTGLLESQLSRHDQMLSVHDIRLADMDLRFQVLETASYNGVLIWKIRDYKRRKQEAVMGKTLSLYSQPFYTGYFGYKMCARVYLNGDGMGKGTHLSLFFVIMRGEYDALLPWPFKQKVTLMLMDQGSSRRHLGDAFKPDPNSSSFKKPTGEMNIASGCPVFVAQTVLENGTYIKDDTIFIKVIVDTSDLPDP
